Experimental data taken from article PMC6908726.
No constants are given. Whether binding was seen depends on the method and setting. Binding seen in cells or lysates may run through a third protein. Some results given as binding are weak or reduced against the parent protein; the word gives no strength.

Amino acid sequences for entries named in this document (tags omitted).
UniProt O88597: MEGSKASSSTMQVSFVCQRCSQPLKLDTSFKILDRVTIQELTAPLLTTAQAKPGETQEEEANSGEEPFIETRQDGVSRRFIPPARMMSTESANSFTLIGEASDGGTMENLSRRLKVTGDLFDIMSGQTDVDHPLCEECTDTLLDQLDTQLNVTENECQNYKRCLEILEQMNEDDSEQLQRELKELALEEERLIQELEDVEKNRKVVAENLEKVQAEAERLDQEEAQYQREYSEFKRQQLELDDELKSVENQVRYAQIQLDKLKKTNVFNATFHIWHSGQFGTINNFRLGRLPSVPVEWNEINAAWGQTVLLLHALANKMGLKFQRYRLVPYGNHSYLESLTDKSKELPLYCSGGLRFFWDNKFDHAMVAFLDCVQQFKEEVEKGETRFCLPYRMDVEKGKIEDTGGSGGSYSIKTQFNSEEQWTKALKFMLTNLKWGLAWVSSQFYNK
UniProt Q6PF93: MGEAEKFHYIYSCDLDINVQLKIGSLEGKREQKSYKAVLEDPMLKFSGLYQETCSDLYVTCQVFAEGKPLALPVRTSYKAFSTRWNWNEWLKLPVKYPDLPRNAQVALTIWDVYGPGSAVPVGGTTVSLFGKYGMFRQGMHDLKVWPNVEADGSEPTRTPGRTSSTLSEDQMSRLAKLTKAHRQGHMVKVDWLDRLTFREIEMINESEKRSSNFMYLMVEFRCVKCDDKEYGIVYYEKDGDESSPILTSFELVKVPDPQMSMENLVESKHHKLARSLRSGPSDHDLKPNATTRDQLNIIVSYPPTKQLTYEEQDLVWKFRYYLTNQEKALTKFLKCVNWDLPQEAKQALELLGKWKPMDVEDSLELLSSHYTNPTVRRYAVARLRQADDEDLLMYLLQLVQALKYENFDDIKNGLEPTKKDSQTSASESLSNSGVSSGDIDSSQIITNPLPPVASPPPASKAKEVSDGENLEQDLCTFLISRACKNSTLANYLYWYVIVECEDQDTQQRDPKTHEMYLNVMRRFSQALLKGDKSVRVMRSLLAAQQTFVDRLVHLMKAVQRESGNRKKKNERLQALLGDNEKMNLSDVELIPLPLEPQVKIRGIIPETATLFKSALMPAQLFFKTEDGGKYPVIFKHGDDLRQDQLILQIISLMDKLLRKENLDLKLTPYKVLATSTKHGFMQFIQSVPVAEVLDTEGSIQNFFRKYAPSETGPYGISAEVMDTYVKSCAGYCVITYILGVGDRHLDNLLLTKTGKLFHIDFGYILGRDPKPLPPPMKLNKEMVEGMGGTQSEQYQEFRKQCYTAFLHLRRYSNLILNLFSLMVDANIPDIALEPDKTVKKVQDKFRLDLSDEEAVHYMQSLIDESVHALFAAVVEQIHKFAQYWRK
UniProt Q8R4B8: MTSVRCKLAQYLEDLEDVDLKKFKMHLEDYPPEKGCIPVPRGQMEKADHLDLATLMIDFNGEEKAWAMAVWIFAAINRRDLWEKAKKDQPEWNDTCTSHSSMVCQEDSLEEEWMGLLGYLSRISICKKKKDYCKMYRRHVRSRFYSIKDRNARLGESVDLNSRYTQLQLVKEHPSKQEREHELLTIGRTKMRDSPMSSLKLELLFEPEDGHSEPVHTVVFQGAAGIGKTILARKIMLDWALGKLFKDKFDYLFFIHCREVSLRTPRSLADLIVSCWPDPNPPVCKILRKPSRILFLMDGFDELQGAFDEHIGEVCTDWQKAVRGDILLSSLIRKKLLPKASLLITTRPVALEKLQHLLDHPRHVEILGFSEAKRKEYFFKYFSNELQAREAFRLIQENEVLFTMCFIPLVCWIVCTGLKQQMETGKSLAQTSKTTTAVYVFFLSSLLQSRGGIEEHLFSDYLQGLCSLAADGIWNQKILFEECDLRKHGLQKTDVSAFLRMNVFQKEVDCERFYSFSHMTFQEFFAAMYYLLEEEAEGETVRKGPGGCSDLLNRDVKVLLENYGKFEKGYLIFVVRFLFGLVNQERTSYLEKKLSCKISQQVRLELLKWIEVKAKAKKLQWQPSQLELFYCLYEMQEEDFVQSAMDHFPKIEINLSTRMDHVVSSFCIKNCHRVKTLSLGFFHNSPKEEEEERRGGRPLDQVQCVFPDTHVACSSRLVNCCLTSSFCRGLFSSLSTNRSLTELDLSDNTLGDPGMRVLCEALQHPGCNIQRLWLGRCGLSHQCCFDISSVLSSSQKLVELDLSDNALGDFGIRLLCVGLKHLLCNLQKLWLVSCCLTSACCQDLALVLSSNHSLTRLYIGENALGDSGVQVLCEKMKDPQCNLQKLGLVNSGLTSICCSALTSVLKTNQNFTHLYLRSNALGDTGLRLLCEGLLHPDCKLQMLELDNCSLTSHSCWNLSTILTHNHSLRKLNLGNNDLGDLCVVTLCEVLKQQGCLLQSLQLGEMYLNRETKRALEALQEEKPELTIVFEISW
UniProt P22366: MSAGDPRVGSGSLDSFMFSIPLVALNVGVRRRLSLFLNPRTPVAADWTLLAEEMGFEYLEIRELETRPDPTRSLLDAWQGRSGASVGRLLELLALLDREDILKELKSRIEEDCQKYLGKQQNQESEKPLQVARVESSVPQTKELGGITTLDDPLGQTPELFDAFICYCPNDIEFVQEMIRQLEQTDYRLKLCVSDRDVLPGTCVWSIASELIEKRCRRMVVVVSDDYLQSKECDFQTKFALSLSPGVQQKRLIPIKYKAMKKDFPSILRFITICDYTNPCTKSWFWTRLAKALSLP
UniProt Q3UP24: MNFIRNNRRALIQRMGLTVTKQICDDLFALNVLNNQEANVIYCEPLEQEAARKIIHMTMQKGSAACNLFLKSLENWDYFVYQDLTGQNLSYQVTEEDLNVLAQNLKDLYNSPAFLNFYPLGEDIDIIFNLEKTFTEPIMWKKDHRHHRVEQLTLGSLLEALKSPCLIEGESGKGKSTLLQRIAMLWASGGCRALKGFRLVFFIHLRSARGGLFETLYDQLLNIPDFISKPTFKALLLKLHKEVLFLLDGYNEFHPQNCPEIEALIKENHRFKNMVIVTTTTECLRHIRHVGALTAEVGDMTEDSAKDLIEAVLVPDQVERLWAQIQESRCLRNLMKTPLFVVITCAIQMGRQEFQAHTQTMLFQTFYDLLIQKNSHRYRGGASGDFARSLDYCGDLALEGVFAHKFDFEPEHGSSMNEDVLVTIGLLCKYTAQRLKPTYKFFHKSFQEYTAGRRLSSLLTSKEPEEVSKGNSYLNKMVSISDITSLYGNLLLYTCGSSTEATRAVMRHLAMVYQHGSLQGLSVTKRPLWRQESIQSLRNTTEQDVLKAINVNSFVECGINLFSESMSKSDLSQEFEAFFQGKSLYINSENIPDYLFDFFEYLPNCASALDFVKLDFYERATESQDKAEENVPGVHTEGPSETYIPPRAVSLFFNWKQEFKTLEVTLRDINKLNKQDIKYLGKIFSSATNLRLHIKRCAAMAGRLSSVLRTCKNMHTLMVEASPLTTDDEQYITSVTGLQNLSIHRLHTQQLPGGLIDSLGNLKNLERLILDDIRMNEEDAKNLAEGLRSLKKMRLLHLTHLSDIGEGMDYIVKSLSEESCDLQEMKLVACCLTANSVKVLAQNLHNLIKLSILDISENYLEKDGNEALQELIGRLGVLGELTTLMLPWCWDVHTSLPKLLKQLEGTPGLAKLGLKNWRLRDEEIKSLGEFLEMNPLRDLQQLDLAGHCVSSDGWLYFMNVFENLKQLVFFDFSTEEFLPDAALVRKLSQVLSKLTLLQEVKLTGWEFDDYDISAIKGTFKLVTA

T1: UVRAG (wild-type, endogenous mouse) (mouse (endogenous in liver and BMDM)) (UniProt Q8K245)
T1 sequence: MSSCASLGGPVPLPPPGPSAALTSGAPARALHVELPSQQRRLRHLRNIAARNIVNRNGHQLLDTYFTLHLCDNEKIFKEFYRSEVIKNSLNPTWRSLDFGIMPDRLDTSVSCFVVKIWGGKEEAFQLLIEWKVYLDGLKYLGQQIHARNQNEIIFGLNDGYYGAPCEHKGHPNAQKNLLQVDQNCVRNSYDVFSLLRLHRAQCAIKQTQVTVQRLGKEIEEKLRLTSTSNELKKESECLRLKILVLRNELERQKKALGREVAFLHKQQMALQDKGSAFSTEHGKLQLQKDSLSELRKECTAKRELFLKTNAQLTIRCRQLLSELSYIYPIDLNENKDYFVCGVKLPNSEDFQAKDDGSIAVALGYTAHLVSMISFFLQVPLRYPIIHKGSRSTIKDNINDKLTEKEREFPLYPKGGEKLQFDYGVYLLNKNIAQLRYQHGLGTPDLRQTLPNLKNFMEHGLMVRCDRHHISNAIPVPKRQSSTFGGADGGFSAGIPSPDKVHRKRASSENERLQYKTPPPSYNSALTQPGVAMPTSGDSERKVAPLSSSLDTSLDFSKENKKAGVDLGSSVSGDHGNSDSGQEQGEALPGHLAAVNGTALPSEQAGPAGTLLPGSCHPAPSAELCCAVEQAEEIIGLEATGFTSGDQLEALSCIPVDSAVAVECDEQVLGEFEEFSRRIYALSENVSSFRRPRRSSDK

T2: pro-caspase-1 (mouse (endogenous in BMDM and colon)) (UniProt P29452)
T2 sequence: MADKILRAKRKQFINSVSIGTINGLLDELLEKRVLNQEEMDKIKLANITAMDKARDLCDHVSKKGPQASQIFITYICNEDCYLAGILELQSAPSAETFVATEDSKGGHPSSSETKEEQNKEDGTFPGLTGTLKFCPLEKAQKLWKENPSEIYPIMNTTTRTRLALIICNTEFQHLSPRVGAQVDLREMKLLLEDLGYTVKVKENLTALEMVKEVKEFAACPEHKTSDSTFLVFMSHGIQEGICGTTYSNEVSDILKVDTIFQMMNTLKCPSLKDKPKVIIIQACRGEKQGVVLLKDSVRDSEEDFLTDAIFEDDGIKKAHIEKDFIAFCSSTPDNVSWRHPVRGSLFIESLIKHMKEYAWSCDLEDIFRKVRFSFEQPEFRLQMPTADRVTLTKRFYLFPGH

B1: TRIF (protein, UniProt Q80UF7 1-732)
chain: MDNPGPSLRGAFGILGALERDRLTHLKHKLGSLCSGSQESKLLHAMVLLALGQDTEARVSLESLKMNTVAQLVAHQWADMETTEGPEEPPDLSWTVARLYHLLAEENLCPASTRDMAYQVALRDFASQGDHQLGQLQNEAWDRCSSDIKGDPSGFQPLHSHQGSLQPPSASPAVTRSQPRPIDTPDWSWGHTLHSTNSTASLASHLEISQSPTLAFLSSHHGTHGPSKLCNTPLDTQEPQLVPEGCQEPEEISWPPSVETSVSLGLPHEISVPEVSPEEASPILPDALAAPDTSVHCPIECTELSTNSRSPLTSTTESVGKQWPITSQRSPQVPVGDDSLQNTTSSSPPAQPPSLQASPKLPPSPLSSASSPSSYPAPPTSTSPVLDHSETSDQKFYNFVVIHARADEQVALRIREKLETLGVPDGATFCEEFQVPGRGELHCLQDAIDHSGFTILLLTASFDCSLSLHQINHALMNSLTQSGRQDCVIPLLPLECSQAQLSPDTTRLLHSIVWLDEHSPIFARKVANTFKTQKLQAQRVRWKKAQEARTLKEQSIQLEAERQNVAAISAAYTAYVHSYRAWQAEMNKLGVAFGKNLSLGTPTPSWPGCPQPIPSHPQGGTPVFPYSPQPPSFPQPPCFPQPPSFPQPPSFPLPPVSSPQSQSFPSASSPAPQTPGPQPLIIHHAQMVQLGVNNHMWGHTGAQSSDDKTECSENPCMGPLTDQGEPLLETPE
B2: TRAF6 (enzyme, UniProt P70196 1-530)
chain: MSLLNCENSCGSSQSSSDCCAAMAASCSAAVKDDSVSGSASTGNLSSSFMEEIQGYDVEFDPPLESKYECPICLMALREAVQTPCGHRFCKACIIKSIRDAGHKCPVDNEILLENQLFPDNFAKREILSLTVKCPNKGCLQKMELRHLEDHQVHCEFALVNCPQCQRPFQKCQVNTHIIEDCPRRQVSCVNCAVSMAYEEKEIHDQSCPLANIICEYCGTILIREQMPNHYDLDCPTAPIPCTFSVFGCHEKMQRNHLARHLQENTQLHMRLLAQAVHNVNLALRPCDAASPSRGCRPEDPNYEETIKQLESRLVRQDHQIRELTAKMETQSMYVGELKRTIRTLEDKVAEMEAQQCNGIYIWKIGNFGMHLKSQEEERPVVIHSPGFYTGRPGYKLCMRLHLQLPTAQRCANYISLFVHTMQGEYDSHLPWPFQGTIRLTILDQSEALIRQNHEEVMDAKPELLAFQRPTIPRNPKGFGYVTFMHLEALRQGTFIKDDTLLVRCEVSTRFDMGGLRKEGFQPRSTDAGV
B3: UVRAG (wild-type, endogenous mouse) (protein, UniProt Q8K245 1-698)
chain: MSSCASLGGPVPLPPPGPSAALTSGAPARALHVELPSQQRRLRHLRNIAARNIVNRNGHQLLDTYFTLHLCDNEKIFKEFYRSEVIKNSLNPTWRSLDFGIMPDRLDTSVSCFVVKIWGGKEEAFQLLIEWKVYLDGLKYLGQQIHARNQNEIIFGLNDGYYGAPCEHKGHPNAQKNLLQVDQNCVRNSYDVFSLLRLHRAQCAIKQTQVTVQRLGKEIEEKLRLTSTSNELKKESECLRLKILVLRNELERQKKALGREVAFLHKQQMALQDKGSAFSTEHGKLQLQKDSLSELRKECTAKRELFLKTNAQLTIRCRQLLSELSYIYPIDLNENKDYFVCGVKLPNSEDFQAKDDGSIAVALGYTAHLVSMISFFLQVPLRYPIIHKGSRSTIKDNINDKLTEKEREFPLYPKGGEKLQFDYGVYLLNKNIAQLRYQHGLGTPDLRQTLPNLKNFMEHGLMVRCDRHHISNAIPVPKRQSSTFGGADGGFSAGIPSPDKVHRKRASSENERLQYKTPPPSYNSALTQPGVAMPTSGDSERKVAPLSSSLDTSLDFSKENKKAGVDLGSSVSGDHGNSDSGQEQGEALPGHLAAVNGTALPSEQAGPAGTLLPGSCHPAPSAELCCAVEQAEEIIGLEATGFTSGDQLEALSCIPVDSAVAVECDEQVLGEFEEFSRRIYALSENVSSFRRPRRSSDK
B4: AIM2 (protein, UniProt Q91VJ1 1-354)
chain: MESEYREMLLLTGLDHITEEELKRFKYFALTEFQIARSTLDVADRTELADHLIQSAGAASAVTKAINIFQKLNYMHIANALEEKKKEAERKLMTNTKKRGTQKVENRSQAENCSAASATRSDNDFKEQAATEVCPQAKPQKKQMVAEQEAIREDLQKDPLVVTVLKAINPFECETQEGRQEIFHATVATETDFFFVKVLNAQFKDKFIPKRTIKISNYLWHSNFMEVTSSSVVVDVESNHEVPNNVVKRARETPRISKLKIQPCGTIVNGLFKVQKITEEKDRVLYGIHDKTGTMEVLVLGNPSKTKCEEGDKIRLTFFEVSKNGVKIQLKSGPCSFFKVIKAAKPKTDMKSVE
B5: NLRP6 (protein, UniProt Q91WS2 1-869)
chain: MDAAGASCSSVDAVARELLMATLEELSQEQLKRFRHKLRDAPLDGRSIPWGRLERSDAVDLVDKLIEFYEPVPAVEMTRQVLKRSDIRDVASRLKQQQLQKLGPTSVLLSVSAFKKKYREHVLRQHAKVKERNARSVKINKRFTKLLIAPGTGAVEDELLGPLGEPEPERARRSDTHTFNRLFRGNDEESSQPLTVVLQGPAGIGKTMAAKKILYDWAAGKLYHSQVDFAFFMPCGELLERPGKRSLADLVLDQCPDRAWPVKRILAQPNRLLFILDGADELPTLPSSEATPCKDPLEATSGLRVLSGLLSQELLPGARLLVTTRHAATGRLQGRLCSPQCAEIRGFSDKDKKKYFFKFFRDERKAERAYRFVKENETLFALCFVPFVCWIVCTVLQQQLELGRDLSRTSKTTTSVYLLFITSMLKSAGTNGPRVQGELRTLCRLAREGILDHHKAQFSEEDLEKLKLRGSQVQTIFLNKKEIPGVLKTEVTYQFIDQSFQEFLAALSYLLEAERTPGTPAGGVQKLLNSDAELRGHLALTTRFLFGLLNTEGLRDIGNHFGCVVPDHVKKDTLRWVQGQSHPKGPPVGAKKTAELEDIEDAEEEEEEEEDLNFGLELLYCLYETQEEDFVRQALSSLPEIVLERVRLTRMDLEVLNYCVQCCPDGQALRLVSCGLVAAKEKKKKKKSLVKRLKGSQSTKKQPPVSLLRPLCETMTTPKCHLSVLILSHCRLPDAVCRDLSEALKVAPALRELGLLQSRLTNTGLRLLCEGLAWPKCQVKTLRMQLPDLQEVINYLVIVLQQSPVLTTLDLSGCQLPGVIVEPLCAALKHPKCSLKTLSLTSVELSENSLRDLQAVKTSKPDLSIIYSK

Legend:
[1] = biological target: Beclin1 (mouse (endogenous in liver and BMDM)) (UniProt O88597); experiment: co-IP; BMDMs from iUVRAG^FS mice, PBS or LPS (100 ng/ml) for 4 h, with or without Dox; IP with anti-Beclin1; lysis in 20 mM Tris pH 7.5, 150 mM NaCl, 1 mM EDTA, 2% Triton X-100; western blot
[2] = biological target: T1, UVRAG (wild-type, endogenous mouse) (mouse (endogenous in liver and BMDM)); experiment: co-IP; liver of 48 h-starved control and Dox-treated/untreated iUVRAG^FS mice; IP with anti-UVRAG (C-term), IgG as negative control; lysis in 25 mM HEPES, 150 mM NaCl, 1 mM EDTA, 1% Triton X-100; western blot
[3] = biological target: Beclin1 (mouse (endogenous in liver and BMDM)) (UniProt O88597); experiment: co-IP; livers of LPS-treated iUVRAG^FS mice (Supplementary Fig. 2b, not shown); told only as 'similar results'
[4] = biological target: T2, pro-caspase-1 (mouse (endogenous in BMDM and colon)); experiment: co-IP; colon tissues of control and iUVRAG^FS mice on Dox before/after DSS; inflammasome complex assembly; the precipitating antibody is not named in the text shown
[5] = biological target: T2, pro-caspase-1 (mouse (endogenous in BMDM and colon)); experiment: co-IP; BMDM from iUVRAG^FS and control mice (also Atg5-deficient BMDM), PBS or LPS (100 ng/ml, 6 h) followed by 1 h of ATP; ASC and NLRP3 co-precipitated with pro-caspase-1; western blot

| Molecule | binding [1] | binding [3] | binding [4] | other results |
| --- | --- | --- | --- | --- |
| Vps34 (from UniProt Q6PF93 1-887) (enzyme) | binds | binds | – | binding [2]: binds |
| Beclin1 (from UniProt O88597 1-448) | – | – | – | binding [2]: binds |
| NLRP3 (from UniProt Q8R4B8 1-1033) | – | – | binds | binding [5]: binds |
| MyD88 (from UniProt P22366 1-296) | binds | binds | – | – |
| NLRC4 (from UniProt Q3UP24 1-1024) | – | – | binds | – |
| B1 | binds | binds | – | – |
| B2 | binds | binds | – | – |
| B3 | binds | binds | – | – |
| B4 | – | – | binds | – |
| B5 | – | – | binds | – |
